Experimental data from paper doi:10.1101/2021.06.28.447216.
No constants are given. Whether binding was seen depends on the method and setting. Some binding calls cover weakened binding; strength is not graded here. Where a sequence is shown, tags or fusion partners need not be part of it.

Sequences of proteins named here, by UniProt entry; tags and fusion partners are left off.
UniProt P45973: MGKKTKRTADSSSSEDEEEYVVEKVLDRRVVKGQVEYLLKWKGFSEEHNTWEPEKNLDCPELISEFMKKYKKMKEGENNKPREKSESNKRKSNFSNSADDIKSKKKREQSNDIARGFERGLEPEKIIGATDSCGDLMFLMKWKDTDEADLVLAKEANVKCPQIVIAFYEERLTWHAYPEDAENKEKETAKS
UniProt P83916: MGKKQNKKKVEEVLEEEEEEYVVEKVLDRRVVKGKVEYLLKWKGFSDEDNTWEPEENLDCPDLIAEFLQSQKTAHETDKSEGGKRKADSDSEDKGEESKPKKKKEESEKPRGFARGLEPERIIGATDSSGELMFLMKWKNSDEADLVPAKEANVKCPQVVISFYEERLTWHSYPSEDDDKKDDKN

Target: T1, mCherry-LacR-tagged version of POGZ (human) (UniProt Q7Z3K3)
T1 sequence: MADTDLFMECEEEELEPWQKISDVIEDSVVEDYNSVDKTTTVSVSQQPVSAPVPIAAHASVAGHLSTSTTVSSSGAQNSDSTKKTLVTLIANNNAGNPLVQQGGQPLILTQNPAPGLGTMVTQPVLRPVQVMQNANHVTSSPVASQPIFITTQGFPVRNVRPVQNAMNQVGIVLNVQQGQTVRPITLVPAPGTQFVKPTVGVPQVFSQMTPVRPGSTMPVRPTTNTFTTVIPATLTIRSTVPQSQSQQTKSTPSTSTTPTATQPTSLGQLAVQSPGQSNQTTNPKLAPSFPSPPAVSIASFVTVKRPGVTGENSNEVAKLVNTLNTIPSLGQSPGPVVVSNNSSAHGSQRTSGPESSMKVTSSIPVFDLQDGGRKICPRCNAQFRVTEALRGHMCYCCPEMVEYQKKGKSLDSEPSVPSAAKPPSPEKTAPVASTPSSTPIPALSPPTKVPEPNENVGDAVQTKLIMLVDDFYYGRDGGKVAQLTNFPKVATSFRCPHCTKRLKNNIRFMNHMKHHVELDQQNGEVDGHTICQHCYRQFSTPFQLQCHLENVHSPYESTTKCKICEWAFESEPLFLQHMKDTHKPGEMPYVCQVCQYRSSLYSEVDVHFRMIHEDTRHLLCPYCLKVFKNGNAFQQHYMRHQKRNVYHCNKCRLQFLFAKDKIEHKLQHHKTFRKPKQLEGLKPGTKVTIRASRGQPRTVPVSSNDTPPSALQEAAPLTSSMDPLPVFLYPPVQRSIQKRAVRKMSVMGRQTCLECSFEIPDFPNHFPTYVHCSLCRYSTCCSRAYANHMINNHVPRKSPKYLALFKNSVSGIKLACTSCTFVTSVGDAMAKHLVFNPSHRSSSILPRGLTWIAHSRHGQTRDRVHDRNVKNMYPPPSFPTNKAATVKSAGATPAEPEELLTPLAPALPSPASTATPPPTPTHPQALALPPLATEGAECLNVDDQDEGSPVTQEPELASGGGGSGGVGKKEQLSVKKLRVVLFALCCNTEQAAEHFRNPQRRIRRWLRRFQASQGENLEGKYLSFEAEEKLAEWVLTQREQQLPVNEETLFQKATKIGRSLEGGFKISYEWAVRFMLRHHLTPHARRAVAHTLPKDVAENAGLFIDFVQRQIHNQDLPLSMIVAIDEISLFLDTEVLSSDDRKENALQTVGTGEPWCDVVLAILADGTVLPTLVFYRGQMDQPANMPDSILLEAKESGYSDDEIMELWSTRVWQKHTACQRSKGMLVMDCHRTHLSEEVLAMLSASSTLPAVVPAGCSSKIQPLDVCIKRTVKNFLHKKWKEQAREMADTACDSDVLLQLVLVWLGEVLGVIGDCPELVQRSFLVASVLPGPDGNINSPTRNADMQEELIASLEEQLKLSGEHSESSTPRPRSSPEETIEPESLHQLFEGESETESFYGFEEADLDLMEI
Assay: LacO/LacR tethering assay with immunofluorescence

Substance | binding
endogenous HP1-α (from UniProt P45973 1-191) | binds
endogenous HP1-β (from UniProt P83916 1-185) | binds
